# Laboratory results: PMC4740867
# Results are given in words; binding and its absence hold for the method and conditions named. Binding seen in cells or lysates may run through a third protein. Where a sequence is shown, tags or fusion partners need not be part of it.
# B1: BAK (protein, UniProt O08734 1-209)
# chain: MASGQGPGPPKVGCDESPSPSEQQVAQDTEEVFRSYVFYLHQQEQETQGAAAPANPEMDNLPLEPNSILGQVGRQLALIGDDINRRYDTEFQNLLEQLQPTAGNAYELFTKIASSLFKSGISWGRVVALLGFGYRLALYVYQRGLTGFLGQVTCFLADIILHHYIARWIAQRGGWVAALNFRRDPILTVMVIFGVVLLGQFVVHRFFRS
# Biological target: T1, FLAG-PUMA (human) (UniProt Q9BXH1)
# T1 sequence: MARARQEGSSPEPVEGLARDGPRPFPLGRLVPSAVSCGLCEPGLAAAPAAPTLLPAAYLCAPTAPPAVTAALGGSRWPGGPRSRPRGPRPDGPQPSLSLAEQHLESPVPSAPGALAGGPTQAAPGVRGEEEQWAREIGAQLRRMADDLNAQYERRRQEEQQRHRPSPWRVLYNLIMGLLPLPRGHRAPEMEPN
# Experiment: co-IP; SVEC cells stably expressing PUMA or BIMs 2A BCL-xL, without or with ABT-737; lysates in 1% Triton-X 100 buffer (20 mM Tris-Cl pH 7.4, 135 mM NaCl), anti-FLAG M2 affinity gel 16 h at 4 °C, eluted with FLAG peptide, immunoblot
binder,measurement,value
B1,binding,no binding
